Results are given in words; binding and its absence hold for the method and conditions named. In cells and extracts the contact can be indirect. Here binding means that the protein was enriched with, or labelled near, the bait; the list need not be complete.

By UniProt entry, the sequences of proteins in these tests, tags left out.
UniProt Q9MAM4: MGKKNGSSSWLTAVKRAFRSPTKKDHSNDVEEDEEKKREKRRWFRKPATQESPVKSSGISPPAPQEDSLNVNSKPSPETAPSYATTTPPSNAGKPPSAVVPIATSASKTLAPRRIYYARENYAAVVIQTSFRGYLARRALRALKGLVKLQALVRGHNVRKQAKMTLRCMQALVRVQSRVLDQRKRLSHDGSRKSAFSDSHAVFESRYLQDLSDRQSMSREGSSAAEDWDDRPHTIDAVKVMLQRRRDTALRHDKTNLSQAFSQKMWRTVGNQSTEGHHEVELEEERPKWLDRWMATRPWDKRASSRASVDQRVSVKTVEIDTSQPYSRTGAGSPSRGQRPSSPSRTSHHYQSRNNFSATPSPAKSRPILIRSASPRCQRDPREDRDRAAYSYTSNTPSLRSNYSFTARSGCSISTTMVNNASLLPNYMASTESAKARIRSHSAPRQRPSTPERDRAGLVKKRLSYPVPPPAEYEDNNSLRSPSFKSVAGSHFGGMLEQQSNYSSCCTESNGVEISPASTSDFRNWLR

The assay addresses AtIQD18-sYFP (pIQD18::gIQD18:sYFP) (Arabidopsis thaliana) (UniProt Q9MAM4). Nature of the assay: affinity purification with mass spectrometry.

B1: SPIRAL2 (SPR2) protein, endogenous (protein, UniProt Q9T041 1-864)
chain: MSTPTTSGSAAKPTRPARSSSLATRSCSNSGSLTSFQAMVELKQKILTSISKLADRDTYQIAVEDLEKTIQSLTPETLPMFLNCLYDSCSDPKPAVKKECLHLLSYVCSLHCDSTAAHLTKIIAQIVKRLKDSDSGVRDACRDTIGALSGIYLKGKEEGTNTGSASLAVGLFVKPLFEAMGEQNKVVQSGASMCMARMVESAASPPVTSFQKLCPRICKLLSNSSFLAKASLLPVVSSLSQVGAIAPQSLESLLESIHDCLGSTDWVTRKAAAETLTALASHSSGLIKEKTDSTITVLETCRFDKIKPVRESVTEALQLWKKISGKYVDGASDDSKLSASEQLGSEKNGEKRSNLADLMKKEASDGSTLSPDSASKGKGCFPEKAVGLLKKKAPVLSDKDFNPEFFQRLERRQSVEVVVPRRCKNNDEEESGLDDLNAMGSSNRLKNTQADDKQVKGRFDGNGSQARTSGDDKAGVVNGKETPGHHAPVSNTDNQSEGSFTSNRGNWSAIQRQLLQLERQQTNLMNMLQEFIGGSHDSMVTLEGRVRGLERIVEDMARDLSISSGRRANLTAGFGKYNSFANYPTGKYNGRAPGERGSQTDGAMRGRMWNSDMADDWFIPPHAASRNGQAGPRRSPRSEQYENEHMGNGRRGWDNKASGTIRFGEGPSARSVWQASKDEATLEAIRVAGEDGAVPRPTRVAVAPEAEAMGDDDNEGQERDPIWVSWSNAMHSLRVGDIDAAYAEVLCAGDQHLVIKLMDKTGPSLDQMSNEIANEALNFISQFLLDHSLYDICLSWSQQLLELVLQDGADTFGVPMELKTEILYNLQDACSTMDPPEDWEGPAPEQLVVQLASVWEIDLQQFDK
With B1, the binding entry is on record as “binds”.

The record behind these values is publication doi:10.1101/275560.
